The text below walks through data of the supplement of paper PMC10849652.

Chains of the proteins cited; added tags and fusions are not shown. Lines headed by an entry give the natural chain unless they say otherwise; changes in a name come on top.
UniProt Q8TCX1: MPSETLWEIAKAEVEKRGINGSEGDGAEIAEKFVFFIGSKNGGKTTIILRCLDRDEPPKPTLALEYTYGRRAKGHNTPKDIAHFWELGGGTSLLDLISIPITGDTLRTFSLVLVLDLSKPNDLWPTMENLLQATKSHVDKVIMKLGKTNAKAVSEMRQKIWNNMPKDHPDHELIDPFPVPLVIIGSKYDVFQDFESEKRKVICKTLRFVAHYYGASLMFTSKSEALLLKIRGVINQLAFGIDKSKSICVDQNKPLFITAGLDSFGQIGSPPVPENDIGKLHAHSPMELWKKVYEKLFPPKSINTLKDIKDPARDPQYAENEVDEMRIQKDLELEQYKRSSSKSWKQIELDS
UniProt Q6P3W2: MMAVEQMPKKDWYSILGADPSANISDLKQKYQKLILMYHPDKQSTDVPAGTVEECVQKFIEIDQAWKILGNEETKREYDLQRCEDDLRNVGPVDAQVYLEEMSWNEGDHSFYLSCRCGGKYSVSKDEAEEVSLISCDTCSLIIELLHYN
UniProt Q7RTS9: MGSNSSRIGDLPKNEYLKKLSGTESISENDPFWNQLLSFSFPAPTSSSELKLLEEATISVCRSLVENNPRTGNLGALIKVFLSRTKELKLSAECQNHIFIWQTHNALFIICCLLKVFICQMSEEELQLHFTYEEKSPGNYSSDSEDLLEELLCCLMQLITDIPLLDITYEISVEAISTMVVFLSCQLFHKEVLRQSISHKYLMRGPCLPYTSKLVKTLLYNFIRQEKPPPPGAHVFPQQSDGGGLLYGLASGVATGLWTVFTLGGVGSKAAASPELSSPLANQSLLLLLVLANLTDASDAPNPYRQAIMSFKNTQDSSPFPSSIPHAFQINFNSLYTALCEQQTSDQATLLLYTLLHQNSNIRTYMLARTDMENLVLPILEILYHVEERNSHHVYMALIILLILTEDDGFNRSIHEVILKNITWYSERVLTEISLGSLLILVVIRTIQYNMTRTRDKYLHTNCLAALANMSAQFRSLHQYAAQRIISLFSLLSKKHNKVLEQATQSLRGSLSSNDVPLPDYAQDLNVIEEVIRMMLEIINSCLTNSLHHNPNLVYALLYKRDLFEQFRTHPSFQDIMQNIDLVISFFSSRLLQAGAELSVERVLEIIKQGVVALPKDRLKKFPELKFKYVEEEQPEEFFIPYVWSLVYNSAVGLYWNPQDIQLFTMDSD
UniProt Q9H1X3: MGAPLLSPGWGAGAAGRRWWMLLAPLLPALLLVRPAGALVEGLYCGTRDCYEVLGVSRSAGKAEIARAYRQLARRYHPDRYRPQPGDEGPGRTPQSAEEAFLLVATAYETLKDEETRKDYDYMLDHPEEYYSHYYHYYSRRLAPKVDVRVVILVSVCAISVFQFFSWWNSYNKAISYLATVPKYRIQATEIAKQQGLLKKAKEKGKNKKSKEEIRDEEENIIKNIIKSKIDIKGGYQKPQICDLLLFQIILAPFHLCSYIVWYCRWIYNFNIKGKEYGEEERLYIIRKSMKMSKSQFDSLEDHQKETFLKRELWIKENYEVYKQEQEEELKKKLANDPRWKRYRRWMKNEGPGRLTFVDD
UniProt O00716: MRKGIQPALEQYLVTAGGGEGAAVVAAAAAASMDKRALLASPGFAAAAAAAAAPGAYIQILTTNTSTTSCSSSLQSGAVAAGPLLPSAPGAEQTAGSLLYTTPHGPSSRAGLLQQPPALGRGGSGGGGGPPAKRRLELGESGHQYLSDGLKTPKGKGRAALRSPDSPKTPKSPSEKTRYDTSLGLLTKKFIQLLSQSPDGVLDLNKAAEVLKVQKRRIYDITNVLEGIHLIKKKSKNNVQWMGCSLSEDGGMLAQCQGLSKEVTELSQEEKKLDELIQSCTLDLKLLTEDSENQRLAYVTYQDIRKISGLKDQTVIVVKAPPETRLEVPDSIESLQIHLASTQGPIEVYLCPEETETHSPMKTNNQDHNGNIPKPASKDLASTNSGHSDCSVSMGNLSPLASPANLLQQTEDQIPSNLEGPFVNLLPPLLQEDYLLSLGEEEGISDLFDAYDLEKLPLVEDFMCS
UniProt O14641: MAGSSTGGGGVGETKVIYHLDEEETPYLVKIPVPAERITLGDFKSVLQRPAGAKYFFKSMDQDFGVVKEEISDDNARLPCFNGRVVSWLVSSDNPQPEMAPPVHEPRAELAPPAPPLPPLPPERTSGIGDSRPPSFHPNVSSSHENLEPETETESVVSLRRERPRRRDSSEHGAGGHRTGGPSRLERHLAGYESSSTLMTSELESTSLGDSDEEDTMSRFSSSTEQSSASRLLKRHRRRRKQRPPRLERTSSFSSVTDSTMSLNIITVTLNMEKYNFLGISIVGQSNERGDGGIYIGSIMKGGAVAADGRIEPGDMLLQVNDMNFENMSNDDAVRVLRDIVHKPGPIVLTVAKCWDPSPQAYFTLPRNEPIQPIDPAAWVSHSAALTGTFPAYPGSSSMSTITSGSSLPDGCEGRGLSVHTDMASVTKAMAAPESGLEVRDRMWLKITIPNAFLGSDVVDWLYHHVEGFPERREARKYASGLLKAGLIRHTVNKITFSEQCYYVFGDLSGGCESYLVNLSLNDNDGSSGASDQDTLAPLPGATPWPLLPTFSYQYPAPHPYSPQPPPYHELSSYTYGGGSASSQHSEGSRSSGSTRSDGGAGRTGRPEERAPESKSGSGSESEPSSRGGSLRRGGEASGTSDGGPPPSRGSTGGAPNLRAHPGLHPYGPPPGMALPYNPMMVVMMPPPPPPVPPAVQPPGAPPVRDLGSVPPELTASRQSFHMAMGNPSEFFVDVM
UniProt Q16610: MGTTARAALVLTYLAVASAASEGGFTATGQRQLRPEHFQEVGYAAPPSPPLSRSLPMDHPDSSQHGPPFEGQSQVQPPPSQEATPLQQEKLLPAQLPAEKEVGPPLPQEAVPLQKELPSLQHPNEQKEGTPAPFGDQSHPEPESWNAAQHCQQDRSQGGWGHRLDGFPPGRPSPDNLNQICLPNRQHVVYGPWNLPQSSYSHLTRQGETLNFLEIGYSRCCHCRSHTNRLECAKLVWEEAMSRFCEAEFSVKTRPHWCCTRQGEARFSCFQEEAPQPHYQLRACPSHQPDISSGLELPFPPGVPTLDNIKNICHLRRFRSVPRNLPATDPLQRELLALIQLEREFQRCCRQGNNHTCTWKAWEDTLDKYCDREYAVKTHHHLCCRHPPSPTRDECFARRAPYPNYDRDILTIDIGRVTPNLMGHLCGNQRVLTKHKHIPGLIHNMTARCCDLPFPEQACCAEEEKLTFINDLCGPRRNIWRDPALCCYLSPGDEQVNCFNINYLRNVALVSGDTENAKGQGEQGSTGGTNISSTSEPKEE
UniProt Q9NRR4: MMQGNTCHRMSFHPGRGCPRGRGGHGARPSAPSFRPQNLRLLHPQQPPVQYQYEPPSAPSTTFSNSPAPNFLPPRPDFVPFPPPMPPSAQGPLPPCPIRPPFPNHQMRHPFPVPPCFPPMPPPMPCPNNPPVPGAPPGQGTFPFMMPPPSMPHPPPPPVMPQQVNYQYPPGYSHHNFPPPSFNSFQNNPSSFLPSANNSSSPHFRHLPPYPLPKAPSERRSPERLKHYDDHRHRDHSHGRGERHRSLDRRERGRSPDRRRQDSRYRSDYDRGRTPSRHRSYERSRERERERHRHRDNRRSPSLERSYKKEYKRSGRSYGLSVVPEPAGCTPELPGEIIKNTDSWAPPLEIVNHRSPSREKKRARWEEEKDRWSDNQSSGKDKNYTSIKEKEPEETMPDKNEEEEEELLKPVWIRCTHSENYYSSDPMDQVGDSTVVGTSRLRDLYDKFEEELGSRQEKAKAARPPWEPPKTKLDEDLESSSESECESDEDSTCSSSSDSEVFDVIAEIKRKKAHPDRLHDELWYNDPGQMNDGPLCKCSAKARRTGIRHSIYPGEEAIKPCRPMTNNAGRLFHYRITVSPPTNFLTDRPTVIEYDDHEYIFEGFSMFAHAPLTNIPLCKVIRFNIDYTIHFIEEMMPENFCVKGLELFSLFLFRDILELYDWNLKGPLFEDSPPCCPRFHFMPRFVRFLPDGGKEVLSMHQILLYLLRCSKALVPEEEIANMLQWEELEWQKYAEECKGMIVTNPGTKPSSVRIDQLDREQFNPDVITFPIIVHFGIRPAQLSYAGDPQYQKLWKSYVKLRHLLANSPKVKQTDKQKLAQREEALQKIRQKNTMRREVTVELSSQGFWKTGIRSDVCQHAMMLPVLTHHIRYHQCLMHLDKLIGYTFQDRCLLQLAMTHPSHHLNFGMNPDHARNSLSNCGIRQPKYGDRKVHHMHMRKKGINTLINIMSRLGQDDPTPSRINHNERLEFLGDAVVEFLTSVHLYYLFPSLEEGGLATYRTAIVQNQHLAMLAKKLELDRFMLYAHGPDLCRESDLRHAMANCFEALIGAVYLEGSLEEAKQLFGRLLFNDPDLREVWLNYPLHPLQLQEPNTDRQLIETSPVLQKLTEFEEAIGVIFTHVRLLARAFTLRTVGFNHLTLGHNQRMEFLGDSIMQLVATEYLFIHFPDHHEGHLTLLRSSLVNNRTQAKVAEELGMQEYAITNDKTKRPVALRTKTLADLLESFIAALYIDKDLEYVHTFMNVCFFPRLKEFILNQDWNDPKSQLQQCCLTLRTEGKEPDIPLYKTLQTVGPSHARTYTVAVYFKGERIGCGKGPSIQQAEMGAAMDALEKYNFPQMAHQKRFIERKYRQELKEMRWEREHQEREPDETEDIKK
UniProt Q6UX65: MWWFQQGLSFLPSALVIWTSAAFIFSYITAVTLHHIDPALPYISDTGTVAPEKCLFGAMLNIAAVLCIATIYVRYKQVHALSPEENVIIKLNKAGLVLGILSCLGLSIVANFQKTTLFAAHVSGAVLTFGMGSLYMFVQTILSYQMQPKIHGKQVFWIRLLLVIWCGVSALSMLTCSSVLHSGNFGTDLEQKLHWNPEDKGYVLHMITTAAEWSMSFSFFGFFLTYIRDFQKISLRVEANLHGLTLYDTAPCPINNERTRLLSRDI
UniProt Q6NUT2: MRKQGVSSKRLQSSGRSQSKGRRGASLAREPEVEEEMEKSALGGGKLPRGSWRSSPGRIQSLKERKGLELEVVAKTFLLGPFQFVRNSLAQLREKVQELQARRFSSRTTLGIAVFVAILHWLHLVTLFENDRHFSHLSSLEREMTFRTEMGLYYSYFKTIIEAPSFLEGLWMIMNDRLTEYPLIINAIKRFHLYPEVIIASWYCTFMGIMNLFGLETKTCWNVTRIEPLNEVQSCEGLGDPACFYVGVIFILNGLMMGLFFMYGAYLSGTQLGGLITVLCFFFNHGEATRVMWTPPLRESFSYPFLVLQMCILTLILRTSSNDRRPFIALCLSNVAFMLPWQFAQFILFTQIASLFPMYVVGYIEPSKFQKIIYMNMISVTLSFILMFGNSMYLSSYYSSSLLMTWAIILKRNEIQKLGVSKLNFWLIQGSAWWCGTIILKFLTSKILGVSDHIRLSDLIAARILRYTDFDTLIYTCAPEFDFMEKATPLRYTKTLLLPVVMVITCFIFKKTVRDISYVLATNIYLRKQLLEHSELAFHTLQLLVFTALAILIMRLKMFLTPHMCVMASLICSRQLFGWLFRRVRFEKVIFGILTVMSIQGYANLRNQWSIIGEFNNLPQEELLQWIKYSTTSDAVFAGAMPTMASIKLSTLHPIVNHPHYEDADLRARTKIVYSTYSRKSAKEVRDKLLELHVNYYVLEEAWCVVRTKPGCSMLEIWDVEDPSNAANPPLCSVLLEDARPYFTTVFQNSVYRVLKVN
UniProt P51808: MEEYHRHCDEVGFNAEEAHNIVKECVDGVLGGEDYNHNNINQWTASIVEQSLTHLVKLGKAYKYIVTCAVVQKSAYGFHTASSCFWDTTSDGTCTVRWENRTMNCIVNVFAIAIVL
UniProt Q66K89: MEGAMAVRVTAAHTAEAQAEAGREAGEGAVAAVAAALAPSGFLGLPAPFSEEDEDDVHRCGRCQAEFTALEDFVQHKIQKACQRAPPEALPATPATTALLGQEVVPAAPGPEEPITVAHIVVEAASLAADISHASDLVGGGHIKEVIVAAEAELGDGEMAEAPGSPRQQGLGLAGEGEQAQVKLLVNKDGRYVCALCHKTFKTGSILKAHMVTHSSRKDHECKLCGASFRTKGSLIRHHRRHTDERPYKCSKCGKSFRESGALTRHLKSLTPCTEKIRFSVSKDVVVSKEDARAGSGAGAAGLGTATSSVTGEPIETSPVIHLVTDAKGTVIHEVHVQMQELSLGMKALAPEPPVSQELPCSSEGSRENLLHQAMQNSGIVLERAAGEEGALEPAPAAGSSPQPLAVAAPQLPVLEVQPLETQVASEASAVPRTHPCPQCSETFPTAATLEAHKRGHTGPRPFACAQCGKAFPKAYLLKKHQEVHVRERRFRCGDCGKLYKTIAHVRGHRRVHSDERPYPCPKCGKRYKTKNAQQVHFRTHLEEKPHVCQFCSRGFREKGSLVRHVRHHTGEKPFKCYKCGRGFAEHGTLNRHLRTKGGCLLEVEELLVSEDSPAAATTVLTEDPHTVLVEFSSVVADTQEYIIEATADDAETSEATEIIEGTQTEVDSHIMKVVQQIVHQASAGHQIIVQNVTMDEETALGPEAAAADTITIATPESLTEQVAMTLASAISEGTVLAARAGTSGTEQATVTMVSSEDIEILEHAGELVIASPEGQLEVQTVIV

The list shows a part of the results.

Compound in one assay: C#Cc1cccc(Nc2ncnc3cc(OCCOC)c(OCCOC)cc23)c1 [erlotinib]
In words: log2 fold change, soluble protein after heating vs DMSO (PISA); higher = thermal stabilisation; K562 cells, 10 uM, 30 min; active = over 0.2 and 3.5 SD of the protein, either way, in both replicates (recomputed). Summed up:
(§1)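 K562 cells (2×10^6 cells/mL) were treated with 10 μM compound for 30 min, and aliquots were heated for 3 min over 48°C-58°C. Pooled aliquots were extracted in PBS with 0.5% NP-40 at 4°C, and the supernatant after 21,000xg for 90 min was measured by TMTpro 16plex LC-MS/MS with channel sums equalised. Reported thermal stability, relative to control samples and from duplicates, is a log2 fold change.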
Take DNAJB9 (UniProt Q9UBS3): the log2 fold change was inactive: 0.243.

As to DUSP19 (UniProt Q8WTR2), the log2 fold change is inactive: 0.068.

Regarding DYNC2LI1 isoform 2 (UniProt Q8TCX1), the log2 fold change was inactive: 0.219.

As for DUSP9 (UniProt Q99956), the log2 fold change is inactive: 0.089.

For the target DNAJC24 (UniProt Q6P3W2), the log2 fold change was inactive: -0.114.

Consider DNPEP (UniProt C9JBE1), for which the log2 fold change was inactive: -0.021.

With DPYSL3 isoform 2 (UniProt Q14195), the log2 fold change is inactive: 0.02.

As for DYM (UniProt Q7RTS9), the log2 fold change is inactive: -0.014.

In the case of DSTYK (UniProt Q6XUX3), the log2 fold change is inactive: 0.09.

Consider DUS1L (UniProt Q6P1R4), for which the log2 fold change was inactive: -0.223.

ECD isoform 3 (UniProt O95905): the log2 fold change is inactive: 0.012.

On to DNAJC25 (UniProt Q9H1X3), for which the log2 fold change was inactive: 0.071.

Regarding E2F3 (UniProt O00716), the log2 fold change is inactive: 0.017.

Compound in the next assay: C/C(=N\NC(=O)C1=CC(=CC=C1)S(=O)(=O)N2CCOCC2)/C3=C(C=CC(=C3)Cl)O
The assay is described as above. Summed up: as §1
For DNAL1 (UniProt Q4LDG9), the log2 fold change is inactive: -0.034.

Regarding DVL2 (UniProt O14641), the log2 fold change was inactive: -0.062.

For the target ECM1 isoform 2 (UniProt Q16610), the log2 fold change was inactive: 0.007.

DONSON (UniProt Q9NYP3): the log2 fold change was inactive: -0.108.

DROSHA (UniProt Q9NRR4): the log2 fold change was inactive: -0.061.

For DPCD (UniProt Q9BVM2), the log2 fold change is inactive: 0.216.

Turning to DRAM2 (UniProt Q6UX65), the log2 fold change was inactive: -0.012.

In the case of DPY19L2 (UniProt Q6NUT2), the log2 fold change was inactive: -0.032.

Consider DYNLT3 (UniProt P51808), for which the log2 fold change is inactive: -0.005.

For E4F1 (UniProt Q66K89), the log2 fold change is inactive: -0.168.

Compound in a further assay: C1=CC(=C(C=C1Cl)C2=NC3=NC=CN=C3C(=N2)NC4=CC=NC=C4)F
The assay is described as above. The method in brief: as §1
For DNAL1 (UniProt Q4LDG9), the log2 fold change was inactive: 0.053.

As for DVL2 (UniProt O14641), the log2 fold change was inactive: -0.26.

On to DYNC2LI1 isoform 2 (UniProt Q8TCX1), for which the log2 fold change was inactive: -0.107.

For DOP1B (UniProt Q9Y3R5), the log2 fold change was inactive: 0.054.

On to DYNC1I1 (UniProt O14576), for which the log2 fold change was inactive: -0.112.

On to DUSP9 (UniProt Q99956), for which the log2 fold change is inactive: 0.01.

For DNAJC24 (UniProt Q6P3W2), the log2 fold change is inactive: 0.123.

With DNPEP (UniProt C9JBE1), the log2 fold change was inactive: -0.052.

For the target ECT2 isoform 3 (UniProt Q9H8V3), the log2 fold change is inactive: -0.12.

Regarding DYM (UniProt Q7RTS9), the log2 fold change is inactive: 0.03.

Regarding DONSON (UniProt Q9NYP3), the log2 fold change is inactive: -0.166.

Consider DROSHA (UniProt Q9NRR4), for which the log2 fold change is inactive: 0.095.

Regarding DSTYK (UniProt Q6XUX3), the log2 fold change was inactive: -0.076.

On to DUSP12 (UniProt V9GYV5), for which the log2 fold change is inactive: -0.034.

Regarding DRAM2 (UniProt Q6UX65), the log2 fold change was inactive: -0.105.

Turning to ECD isoform 3 (UniProt O95905), the log2 fold change is inactive: -0.059.

With DNAJB2 (UniProt P25686), the log2 fold change was inactive: -0.005.

Turning to E2F3 (UniProt O00716), the log2 fold change is inactive: -0.09.

As to E4F1 (UniProt Q66K89), the log2 fold change was inactive: -0.249.

Compound in a further assay: C1=CC(=CC=C1C2=NC3=C(N2)C=C(C=C3)C(=O)N)OC4=CC=C(C=C4)Cl
The assay is described as above. The method in brief:
as §1
In the case of DNAJB9 (UniProt Q9UBS3), the log2 fold change is inactive: 0.146.

With DUSP19 (UniProt Q8WTR2), the log2 fold change was inactive: 0.05.

As to DYNC2LI1 isoform 2 (UniProt Q8TCX1), the log2 fold change is inactive: -0.284.

With DUSP9 (UniProt Q99956), the log2 fold change is inactive: -0.218.

For the target DNAJC24 (UniProt Q6P3W2), the log2 fold change is inactive: 0.062.

For the target DNPEP (UniProt C9JBE1), the log2 fold change is inactive: -0.019.

For DPYSL3 isoform 2 (UniProt Q14195), the log2 fold change was inactive: -0.08.

Take DYM (UniProt Q7RTS9): the log2 fold change was inactive: 0.065.

Turning to DSTYK (UniProt Q6XUX3), the log2 fold change is inactive: 0.

With DUS1L (UniProt Q6P1R4), the log2 fold change was inactive: 0.068.

For the target ECD isoform 3 (UniProt O95905), the log2 fold change is inactive: 0.015.

Regarding DNAJC25 (UniProt Q9H1X3), the log2 fold change is inactive: -0.016.

Turning to E2F3 (UniProt O00716), the log2 fold change was inactive: 0.

Compound in another assay: C1=CC2=C(C=CC(=C2)/C=C\3/C(=O)NC(=NCC4=CC=CS4)S3)N=C1
The description is as above. Summed up: as §1
Turning to DNAL1 (UniProt Q4LDG9), the log2 fold change was inactive: -0.07.

Consider DVL2 (UniProt O14641), for which the log2 fold change is inactive: 0.259.

On to ECM1 isoform 2 (UniProt Q16610), for which the log2 fold change was inactive: 0.499.

As to DONSON (UniProt Q9NYP3), the log2 fold change is inactive: -0.047.

As to DROSHA (UniProt Q9NRR4), the log2 fold change is inactive: 0.062.

Take DPCD (UniProt Q9BVM2): the log2 fold change was inactive: 0.082.

As to DRAM2 (UniProt Q6UX65), the log2 fold change was inactive: 0.124.

As to DPY19L2 (UniProt Q6NUT2), the log2 fold change was inactive: -0.019.

Regarding DYNLT3 (UniProt P51808), the log2 fold change was inactive: -0.15.

E4F1 (UniProt Q66K89): the log2 fold change is inactive: -0.088.

Compound in the next assay: C1=CC2=NC=CN=C2C=C1/C=C/3\C(=O)NC(=O)S3
Described as above. Summed up:
as §1
Take DNAL1 (UniProt Q4LDG9): the log2 fold change was active: -0.654.

As to ECM1 isoform 2 (UniProt Q16610), the log2 fold change is inactive: -0.285.

With DOP1B (UniProt Q9Y3R5), the log2 fold change was inactive: 0.079.

Turning to DNAJC24 (UniProt Q6P3W2), the log2 fold change was inactive: -0.053.

With DNPEP (UniProt C9JBE1), the log2 fold change was inactive: -0.01.

Take DYM (UniProt Q7RTS9): the log2 fold change was inactive: -0.05.

Consider DSTYK (UniProt Q6XUX3), for which the log2 fold change was inactive: 0.106.

In the case of ECD isoform 3 (UniProt O95905), the log2 fold change was inactive: 0.027.

Consider DNAJC25 (UniProt Q9H1X3), for which the log2 fold change was inactive: 0.081.

For DPY19L2 (UniProt Q6NUT2), the log2 fold change was inactive: 0.075.

In the case of E2F3 (UniProt O00716), the log2 fold change was inactive: -0.002.

Consider DYNLT3 (UniProt P51808), for which the log2 fold change is inactive: -0.029.

E4F1 (UniProt Q66K89): the log2 fold change was inactive: 0.137.

As for DNAJB1 (UniProt M0R128), the log2 fold change was inactive: -0.105.
